Counter-ions that a name gives are not always drawn. Some of the results follow. Repeats are few or missing, and single values can be far off.

The subject of the assay is MIA PaCa-2 persister. Put plainly: persister cell viability relative to untreated persister control; higher = more surviving persister cells. As to conditions: treatment time: 9 days; cell state: persister (100 nM gemcitabine + 100 nM Torin1).
On to `c1ccc(-c2ccc(CNc3nc(-c4ccccn4)nnc3-c3ccccc3)cc2)cc1` (inhibitor concentration: 100nM), for which the persister cell viability is 80%.

As for `O=C1C(SCCO)=C(SCCO)C(=O)c2ccccc21` (inhibitor concentration: 3µM), the persister cell viability was found to be 65%.

As for `CN1CCN(CCOc2cc(OC3CCOCC3)c3c(Nc4c(Cl)ccc5c4OCO5)ncnc3c2)CC1` [Saracatinib] (inhibitor concentration: 1µM), the persister cell viability turned out to be 80%.

`CC(=O)c1cnc2ccc(-c3cc(Cl)c(O)c(Cl)c3)nc2c1N[C@H]1CC[C@H](CN(C)C)CC1` [OTSSP167 (hydrochloride)] (inhibitor concentration: 10nM): the persister cell viability amounted to 50%.

As to `CNc1nc(Nc2cn(C(C)(C)C#N)nc2C)ncc1C(F)(F)F` (inhibitor concentration: 10µM), the persister cell viability turned out to be 92.5%.

As for `Cc1nc(-c2nc(-c3ccc(OC(F)(F)F)cc3)no2)nn1Cc1cccc(N2CCC(S(C)(=O)=O)CC2)c1` (inhibitor concentration: 10µM), the persister cell viability came to 100%.

Turning to `CNCc1ccc(-c2[nH]c3cc(F)cc4c3c2CCNC4=O)cc1` [Rucaparib] (inhibitor concentration: 3µM), the persister cell viability turned out to be 104%.

In the case of `CC(C)N(C[C@H]1O[C@@H](n2cnc3c(N)ncnc32)[C@H](O)[C@@H]1O)[C@H]1C[C@@H](CCc2nc3cc(C(C)(C)C)ccc3[nH]2)C1` (inhibitor concentration: 30µM), the persister cell viability was 102%.

For the compound `Cn1c(=O)n(-c2ccc(C(C)(C)C#N)cc2)c2c3cc(-c4cnc5ccccc5c4)ccc3ncc21` [Dactolisib] (inhibitor concentration: 1µM), the persister cell viability amounted to 90%.

For `COCCOc1ccc2c(c1)ncn2-c1ccc2cccc(N3CCC(N)CC3)c2n1` (inhibitor concentration: 300nM), the persister cell viability worked out at 190%.

`O=C(NC[C@H](O)CN1CCc2ccccc2C1)c1ccnc(NC2CCC2)c1` (inhibitor concentration: 10µM): the persister cell viability was 97%.

For the compound `COc1ccc2c3n(c(=NC(=O)c4cccnc4)nc2c1OC)CCN3` (inhibitor concentration: 1µM), the persister cell viability turned out to be 119%.

On to `NC1(C(=O)N[C@@H](CCO)c2ccc(Cl)cc2)CCN(c2nc[nH]c3nccc2-3)CC1` [Capivasertib] (inhibitor concentration: 30µM), for which the persister cell viability stood at 25%.

On to `COc1cccc(OCCCN)c1-c1cc(Nc2cnc(C#N)cn2)n[nH]1` [Prexasertib HCl] (inhibitor concentration: 10nM), for which the persister cell viability came out at 2%.

For `O[C@H]1CC[C@H](Nc2ncc3nc(Nc4c(F)cc(F)cc4F)n([C@H]4CCOC4)c3n2)CC1` [Tanzisertib] (inhibitor concentration: 10µM), the persister cell viability is 110%.

In the case of `COc1cc(OC)c(/C=C/S(=O)(=O)Cc2ccc(OC)c(OP(=O)(O)O)c2)c(OC)c1` [Briciclib] (inhibitor concentration: 100nM), the persister cell viability worked out at 95%.

Take `Cc1cc(Nc2cc(N3CCN(C)CC3)nc(Sc3ccc(NC(=O)C4CC4)cc3)n2)n[nH]1` (inhibitor concentration: 300nM): the persister cell viability was found to be 96.5%.

Turning to `CNC(=O)c1ccccc1Oc1nc(Nc2cc(OC)c(OC)c(OC)c2)ncc1Br` (inhibitor concentration: 1µM), the persister cell viability was 95%.

`C=C(F)C(=O)N1CCN(c2nc(OC[C@@H]3CCCN3C)nc3c2CCN(c2cccc4cccc(Cl)c24)C3)C[C@@H]1CC#N` (inhibitor concentration: 1µM): the persister cell viability came out at 151%.

Take `CCN1CCN(C(c2ccc(C(F)(F)F)cc2)c2ccc3cccnc3c2O)CC1` (stereo not given) (inhibitor concentration: 10µM): the persister cell viability was found to be 95%.

For the compound `Cc1cc(O)c(-c2ccc([C@@H](C)CN)cc2)c2c1[nH]c(=O)c1sccc12` (inhibitor concentration: 3nM), the persister cell viability amounted to 96%.

As for `CC[C@H](C)n1cc(C)c2c(C(=O)NCc3c(C)cc(C)[nH]c3=O)cc(-c3ccc(N4CCNCC4)nc3)cc21` (inhibitor concentration: 3µM), the persister cell viability worked out at 149%.

For the compound `O=C(C=Cc1ccccc1)NC(NC(=S)Nc1ccc(Cl)cc1)C(Cl)(Cl)Cl` (stereo not given) (inhibitor concentration: 10µM), the persister cell viability stood at 106%.

Consider `Cc1cc(N)c2cc(NC(=O)Nc3ccc4nc(C)cc(N)c4c3)ccc2n1` [Surfen] (inhibitor concentration: 30µM), for which the persister cell viability was 2%.

`O=C1C(Cl)=C(NCCN2CCOCC2)C(=O)c2ncccc21` (inhibitor concentration: 300nM): the persister cell viability was found to be 33%.

Values taken from the supplement of paper PMC9671908.
